# Measured values published in US7321027B2, “Small technetium-99m and rhenium labeled agents and methods for imaging tumors” (President and Fellows of Harvard College, priority 2000, dated 2008).
# Some results were stated once for a whole list of compounds, not compound by compound.
# Assay: Determination of lipophilicity and pKa values by HPLC
# Format: physicochemical
# Conditions: HPLC method
# Procedure: The physicochemical parameters of the rhenium complexes, i.e. lipophilicity log P, log D(pH 7.4), and pKa (Table 2) were determined using HPLC methods (Braumann, T.; Grimme, L. H. Determination of Hydrophobic Parameters for Pyridazinone Herbicides by Liquid-Liquid Partition and Reversed-Phase High-Performance Liquid Chromatography. J. Chromatogr. 1981, 206, 7-15; Stytli, C.; Theobald, A. E. Determination of Ionization Constants of Radiopharmaceuticals in Mixed Solvents by HPLC. Appl. Radiat. Isot., 1987, 38, 701-708; Johannsen, B.; Scheunemann, M.; Spies, H.; Brust, P.; Wober, J.; Syhre, R.; Pietzsch, H.-J. Technetium(V) and Rhenium(V) Complexes for 5-HT2A Serotonin Receptor Binding: Structure-Affinity Considerations. Nucl. […]
# Determination of Lipophilicity and pKa Values. […] J. Med. Chem., 1988, 31, 1923-1933) and the partition coefficient at a given pH (D or log D) were calculated from the equation: log D=a log k′+b where the parameters a and b are predetermined using standard amines. […] The aqueous ionization constants pKa were calculated from the pKHPLC values after correction with a predetermined correction factor obtained using standard amine compounds. […]
structure (smiles),measurement,value
"CCN(CC)CCCN1CC[S][Re]2(=[O])[S]CC[N]2C(=O)C1 (stereo not shown) [Re-Compound C, [ReOAADT]-C3—NEt2]",pKa,> 9
